This note sets out measurements from PMC8160739, “Mycobacterium tuberculosis Binds Human Serum Amyloid A, and the Interaction Modulates the Colonization of Human Macrophages and the Transcriptional Response of the Pathogen” (Cells, 2021).

This experiment has as its target T1, recombinant Mycobacterium tuberculosis rABC (Mycobacterium tuberculosis H37Rv) (UniProt P9WQK3).
T1 sequence: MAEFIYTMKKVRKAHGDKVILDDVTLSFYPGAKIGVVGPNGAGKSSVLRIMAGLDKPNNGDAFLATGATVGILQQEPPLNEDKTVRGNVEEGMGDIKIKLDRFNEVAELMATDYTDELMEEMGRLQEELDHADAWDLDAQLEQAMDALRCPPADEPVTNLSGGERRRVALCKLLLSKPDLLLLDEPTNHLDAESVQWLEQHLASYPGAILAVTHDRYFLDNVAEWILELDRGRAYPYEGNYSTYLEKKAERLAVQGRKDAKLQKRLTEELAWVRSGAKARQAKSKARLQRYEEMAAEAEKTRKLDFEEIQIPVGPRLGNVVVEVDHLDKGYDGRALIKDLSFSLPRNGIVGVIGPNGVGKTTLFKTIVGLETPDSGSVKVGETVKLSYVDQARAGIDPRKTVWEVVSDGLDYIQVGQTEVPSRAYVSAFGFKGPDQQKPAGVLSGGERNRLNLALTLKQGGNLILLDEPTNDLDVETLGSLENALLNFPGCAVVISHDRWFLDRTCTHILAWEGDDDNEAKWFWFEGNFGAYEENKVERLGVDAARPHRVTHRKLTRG
In words: far-Western, overlay or dot blot; recombinant Mtb proteins separated by reducing SDS-PAGE (12% gel), transferred to nitrocellulose, incubated 2 h at room temperature with biotin-labeled SAA1 at 10 µg/mL in PBS/0.05% Tween 20/0.1% BSA; streptavidin-peroxidase detection; both purified.

No constants are given. Whether binding was seen depends on the method and setting. Some results given as binding are weak or reduced against the parent protein; the word gives no strength. Sequences can lack the tags named with a protein.

B1: biotin-labeled recombinant human SAA1 (natural protein, UniProt P0DJI8 19-122, looked up)
chain: RSFFSFLGEAFDGARDMWRAYSDMREANYIGSDKYFHARGNYDAAKRGPGGAWAAEVITDARENIQRFFGHGAEDSLADQAANEWGRSGKDPNHFRPAGLPEKY
modifications: biotin (Sulfo-NHS-biotin labeling; sites not stated)
notes: serum amyloid A1 (SAA1), human, recombinant, bought from Sigma Aldrich; Same bought protein as m1, biotinylated; detected with streptavidin-HRP; also called biotinylated SAA1; biotin-labeled human SAA1; source: bought: Sigma Aldrich (recombinant), labeled with EZ-Link Micro Sulfo-NHS-Biotinylation Kit
As for B1, the binding result is recorded as “binds”.
